Assay results published in US10702527B2, “Combination therapy of transcription inhibitors and kinase inhibitors” (Dana-Farber Cancer Institute, Inc., priority 2015, dated 2020).
For at least one compound, name, drawing or mass did not settle the structure.

How the values were obtained:
[1] = tested on: PC9 cells (EGFR-dependent NSCLC); assay: Colony formation assay in PC9 cells; assay type: cell-based; conditions: 4 weeks
[2] = tested on: RT112 bladder carcinoma cells (FGFR3-dependent); assay: Colony formation assay in RT112 cells; assay type: cell-based, human
From the text: Media (and drug) were replaced weekly.

CC(=O)c1c(C)c2cnc(Nc3ccc(N4CCNCC4)cn3)nc2n(C2CCCC2)c1=O [Palbociclib, palbociclib]
enhancement of sensitivity to erlotinib (colony formation) ([1]; compared to THZ1 (FIG. 55B)): more modest effect compared to THZ1
enhancement of sensitivity to BGJ398 (colony formation) ([2]; 4 weeks, compared to THZ1 (FIG. 55D)): more modest effect compared to THZ1

CCCS(=O)(=O)Nc1ccc(F)c(C(=O)c2c[nH]c3ncc(-c4ccc(Cl)cc4)cc23)c1F [vemurafenib]
colony formation ([1]; crystal violet staining, relative to control): does not show effectiveness

CCc1cnn2c(NCc3ccc[n+]([O-])c3)cc(N3CCCC[C@H]3CCO)nc12 [Dinaciclib, dinaciclib]
colony formation, transcription inhibitor alone or in combination with BGJ398 ([2]; one week, 24-well plate (FIG. 35)): very potent, both alone and in combination with BGJ398
